These are yes or no findings as the source states them, for the method shown. Binding seen in cells or lysates may run through a third protein. These calls come from enrichment with a bait or labelling near it, and not all partners need be listed.
Experiments:
[1] = target: HA-tagged wild-type human RBMXL1 (human) (UniProt Q96E39); experiment: affinity purification with mass spectrometry
[2] = target: HA-tagged wild-type human RBMX (human) (UniProt P38159); experiment: affinity purification with mass spectrometry

Amino acid sequences for entries named in this document (tags omitted).
UniProt Q96E39: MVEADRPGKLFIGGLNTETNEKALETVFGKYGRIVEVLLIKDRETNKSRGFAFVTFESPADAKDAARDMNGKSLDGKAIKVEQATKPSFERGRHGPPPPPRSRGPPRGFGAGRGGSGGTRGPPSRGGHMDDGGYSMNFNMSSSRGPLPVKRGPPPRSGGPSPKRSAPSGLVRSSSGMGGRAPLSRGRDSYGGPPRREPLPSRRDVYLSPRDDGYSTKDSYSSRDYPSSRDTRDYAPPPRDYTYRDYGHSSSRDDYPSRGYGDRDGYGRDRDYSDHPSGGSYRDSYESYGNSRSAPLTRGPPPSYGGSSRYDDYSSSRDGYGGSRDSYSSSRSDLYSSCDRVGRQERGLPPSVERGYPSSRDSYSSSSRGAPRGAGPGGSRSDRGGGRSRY
UniProt P38159: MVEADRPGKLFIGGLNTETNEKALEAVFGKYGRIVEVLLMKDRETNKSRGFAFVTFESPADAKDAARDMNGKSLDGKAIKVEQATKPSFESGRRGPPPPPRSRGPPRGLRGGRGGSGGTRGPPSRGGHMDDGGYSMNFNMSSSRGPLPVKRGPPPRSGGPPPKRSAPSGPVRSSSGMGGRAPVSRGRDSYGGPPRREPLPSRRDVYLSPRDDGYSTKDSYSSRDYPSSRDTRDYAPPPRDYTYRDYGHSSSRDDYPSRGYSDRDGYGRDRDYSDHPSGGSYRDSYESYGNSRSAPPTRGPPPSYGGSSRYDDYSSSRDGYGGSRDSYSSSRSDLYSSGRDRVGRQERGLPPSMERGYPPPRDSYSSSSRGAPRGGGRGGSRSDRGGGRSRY

binding [1]	binding [2]	Binder
binds	–	SRSF7 (protein, UniProt Q16629 1-238) MSRYGRYGGETKVYVGNLGTGAGKGELERAFSYYGPLRTVWIARNPPGFAFVEFEDPRDAEDAVRGLDGKVICGSRVRVELSTGMPRRSRFDRPPARRPFDPNDRCYECGEKGHYAYDCHRYSRRRRSRSRSRSHSRSRGRRYSRSRSRSRGRRSRSASPRRSRSISLRRSRSASLRRSRSGSIKGSRYFQSPSRSRSRSRSISRPRSSRSKSRSPSPKRSRSPSGSPRRSASPERMD
binds	–	TRA2B (protein, UniProt P62995 1-288) MSDSGEQNYGERESRSASRSGSAHGSGKSARHTPARSRSKEDSRRSRSKSRSRSESRSRSRRSSRRHYTRSRSRSRSHRRSRSRSYSRDYRRRHSHSHSPMSTRRRHVGNRANPDPNCCLGVFGLSLYTTERDLREVFSKYGPIADVSIVYDQQSRRSRGFAFVYFENVDDAKEAKERANGMELDGRRIRVDFSITKRPHTPTPGIYMGRPTYGSSRRRDYYDRGYDRGYDDRDYYSRSYRGGGGGGGGWRAAQDRDQIYRRRSPSPYYSRGGYRSRSRSRSYSPRRY
binds	binds	HNRNPDL (protein, UniProt O14979 1-420) MEVPPRLSHVPPPLFPSAPATLASRSLSHWRPRPPRQLAPLLPSLAPSSARQGARRAQRHVTAQQPSRLAGGAAIKGGRRRRPDLFRRHFKSSSIQRSAAAAAATRTARQHPPADSSVTMEDMNEYSNIEEFAEGSKINASKNQQDDGKMFIGGLSWDTSKKDLTEYLSRFGEVVDCTIKTDPVTGRSRGFGFVLFKDAASVDKVLELKEHKLDGKLIDPKRAKALKGKEPPKKVFVGGLSPDTSEEQIKEYFGAFGEIENIELPMDTKTNERRGFCFITYTDEEPVKKLLESRYHQIGSGKCEIKVAQPKEVYRQQQQQQKGGRGAAAGGRGGTRGRGRGQGQNWNQGFNNYYDQGYGNYNSAYGGDQNYSGYGGYDYTGYNYGNYGYGQGYADYSGQQSTYGKASRGGGNHQNNYQPY
binds	–	MATR3 (protein, UniProt P43243 1-847) MSKSFQQSSLSRDSQGHGRDLSAAGIGLLAAATQSLSMPASLGRMNQGTARLASLMNLGMSSSLNQQGAHSALSSASTSSHNLQSIFNIGSRGPLPLSSQHRGDADQASNILASFGLSARDLDELSRYPEDKITPENLPQILLQLKRRRTEEGPTLSYGRDGRSATREPPYRVPRDDWEEKRHFRRDSFDDRGPSLNPVLDYDHGSRSQESGYYDRMDYEDDRLRDGERCRDDSFFGETSHNYHKFDSEYERMGRGPGPLQERSLFEKKRGAPPSSNIEDFHGLLPKGYPHLCSICDLPVHSNKEWSQHINGASHSRRCQLLLEIYPEWNPDNDTGHTMGDPFMLQQSTNPAPGILGPPPPSFHLGGPAVGPRGNLGAGNGNLQGPRHMQKGRVETSRVVHIMDFQRGKNLRYQLLQLVEPFGVISNHLILNKINEAFIEMATTEDAQAAVDYYTTTPALVFGKPVRVHLSQKYKRIKKPEGKPDQKFDQKQELGRVIHLSNLPHSGYSDSAVLKLAEPYGKIKNYILMRMKSQAFIEMETREDAMAMVDHCLKKALWFQGRCVKVDLSEKYKKLVLRIPNRGIDLLKKDKSRKRSYSPDGKESPSDKKSKTDGSQKTESSTEGKEQEEKSGEDGEKDTKDDQTEQEPNMLLESEDELLVDEEEAAALLESGSSVGDETDLANLGDVASDGKKEPSDKAVKKDGSASAAAKKKLKKVDKIEELDQENEAALENGIKNEENTEPGAESSENADDPNKDTSENADGQSDENKDDYTIPDEYRIGPYQPNVPVGIDYVIPKTGFYCKLCSLFYTNEEVAKNTHCSSLPHYQKLKKFLNKLAEERRQKKET

Source: publication doi:10.1101/2025.10.17.25337589
